The source of these data is patent publication US20100226922A1, “SPECIFIC PROTEASE INHIBITORS AND THEIR USE IN CANCER THERAPY” (priority 2006, published 2010).

Amino acid sequences for entries named in this document (tags omitted). Residues count along the entry.
UniProt P35222, residues 2-781: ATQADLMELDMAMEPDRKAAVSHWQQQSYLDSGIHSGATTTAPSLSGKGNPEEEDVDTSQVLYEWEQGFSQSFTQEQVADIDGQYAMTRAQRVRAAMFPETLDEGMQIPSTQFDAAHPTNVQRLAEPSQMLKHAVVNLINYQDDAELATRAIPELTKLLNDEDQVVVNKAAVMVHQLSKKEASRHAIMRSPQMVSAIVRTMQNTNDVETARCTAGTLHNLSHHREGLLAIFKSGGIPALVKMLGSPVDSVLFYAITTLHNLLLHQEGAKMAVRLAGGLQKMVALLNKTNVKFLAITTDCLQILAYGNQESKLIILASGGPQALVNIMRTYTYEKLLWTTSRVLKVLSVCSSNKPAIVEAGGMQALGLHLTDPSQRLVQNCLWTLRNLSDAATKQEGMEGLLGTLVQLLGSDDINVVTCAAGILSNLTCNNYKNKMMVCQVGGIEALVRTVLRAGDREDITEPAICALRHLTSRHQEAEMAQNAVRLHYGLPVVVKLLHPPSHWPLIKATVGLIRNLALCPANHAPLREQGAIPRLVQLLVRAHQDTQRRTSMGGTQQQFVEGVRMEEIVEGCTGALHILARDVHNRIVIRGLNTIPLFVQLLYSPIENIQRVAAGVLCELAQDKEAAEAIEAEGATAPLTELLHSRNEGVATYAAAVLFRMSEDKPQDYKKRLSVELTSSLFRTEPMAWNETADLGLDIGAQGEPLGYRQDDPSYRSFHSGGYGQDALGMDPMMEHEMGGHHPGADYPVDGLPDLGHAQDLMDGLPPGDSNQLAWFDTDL
UniProt Q9UJU2: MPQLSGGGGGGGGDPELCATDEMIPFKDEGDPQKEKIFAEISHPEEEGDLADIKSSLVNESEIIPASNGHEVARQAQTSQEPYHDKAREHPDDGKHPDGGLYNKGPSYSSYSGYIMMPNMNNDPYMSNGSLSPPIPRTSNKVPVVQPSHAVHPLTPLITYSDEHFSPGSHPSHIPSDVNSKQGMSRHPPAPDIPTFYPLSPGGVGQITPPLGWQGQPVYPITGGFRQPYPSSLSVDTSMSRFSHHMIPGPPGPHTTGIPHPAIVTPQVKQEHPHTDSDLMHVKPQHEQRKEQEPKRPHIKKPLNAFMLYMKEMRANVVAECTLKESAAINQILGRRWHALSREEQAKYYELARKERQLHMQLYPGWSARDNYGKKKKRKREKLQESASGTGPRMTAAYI

Assay [1] concerns the target T1, EpIC-YFP (intracellular domain of EpCAM starting with serine 289 fused to YFP) (UniProt P16422).
T1 sequence (looked up): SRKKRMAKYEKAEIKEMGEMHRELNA
Description: nuclear extracts of HEK293 cells expressing EpIC-YFP; method not detailed.

In assay [2] the target is T2, EpIC, intracellular domain of EpCAM (human) (UniProt P16422).
T2 sequence (looked up): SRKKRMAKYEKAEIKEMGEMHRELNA
In words: native two-dimensional gel electrophoresis of FaDu nuclear complexes (co-migration).

For assay [3], the target named is T2, EpIC, intracellular domain of EpCAM (human). In words: yeast two-hybrid, EpIC bait in pGBKT7, FHL2 cDNA clone in pACT2.
Assay [4] concerns the target T3, EpCAM (epithelial cell adhesion molecule), full-length (human) (UniProt P16422).
T3 sequence (looked up): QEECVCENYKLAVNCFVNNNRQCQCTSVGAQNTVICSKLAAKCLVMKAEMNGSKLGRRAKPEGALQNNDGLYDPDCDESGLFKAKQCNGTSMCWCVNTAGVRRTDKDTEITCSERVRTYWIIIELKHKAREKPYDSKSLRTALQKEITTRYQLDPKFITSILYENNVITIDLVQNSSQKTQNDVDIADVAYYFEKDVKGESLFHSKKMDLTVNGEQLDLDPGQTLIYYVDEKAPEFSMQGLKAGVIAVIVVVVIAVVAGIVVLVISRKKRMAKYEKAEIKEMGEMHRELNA
In words: co-immunoprecipitation from HEK293-EpCAM cells.

For assay [5], the target named is T3, EpCAM (epithelial cell adhesion molecule), full-length (human). Description: reciprocal co-immunoprecipitation with EpEX- and FHL2-specific antibodies in HEK293 transfectants.
The target in a further assay is β-catenin (human) (UniProt P35222). In words: co-immunoprecipitation in HEK293-EpCAM-HA-FHL2 cells.
Assay [6] deals with T3, EpCAM (epithelial cell adhesion molecule), full-length (human). Description: GST pull-down from HeLa cell extracts expressing EpCAM.

These are yes or no findings as the source states them, for the method shown. For part of these data: Binding seen in cells or lysates may run through a third protein. Some binding calls cover weakened binding; strength is not graded here. For part of these data: Sequences can lack the tags named with a protein.

On to “lymphoid enhancer factor Lef (from UniProt Q9UJU2 1-399)”, for which the binding result in assay [1] is on record as “binds”.
Regarding β-catenin (from UniProt P35222 2-781), the binding entry in assay [1] and in assay [2] was “binds” in each case.

B1: four and a half LIM domain protein FHL2 (other, human, UniProt Q14192 1-279, looked up)
chain: MTERFDCHHCNESLFGKKYILREESPYCVVCFETLFANTCEECGKPIGCDCKDLSYKDRHWHEACFHCSQCRNSLVDKPFAAKEDQLLCTDCYSNEYSSKCQECKKTIMPGTRKMEYKGSSWHETCFICHRCQQPIGTKSFIPKDNQNFCVPCYEKQHAMQCVQCKKPITTGGVTYREQPWHKECFVCTACRKQLSGQRFTARDDFAYCLNCFCDLYAKKCAGCTNPISGLGGTKYISFEERQWHNDCFNCKKCSLSLVGRGFLTERDDILCPDCGKDI
For the molecule B1, the binding entry in assay [3], in assay [4], in assay [5] and in assay [2] was “binds” throughout.

B2: HA-tagged FHL2 (protein, human, UniProt Q14192 1-279, looked up, not shown: small tags and cut ends)
chain: B1 chain
For B2, in the assay with β-catenin (human), the binding result is given as “binds”.

B3: wild-type FHL2 as recombinant GST-fusion (protein, UniProt Q14192 1-279, looked up, not shown: a dimerising Fc or GST)
chain: B1 chain
With B3, the binding entry in assay [6] is “binds”.
